Test results: patent US6432410
No constants are given. Whether binding was seen depends on the method and setting. Some binding calls cover weakened binding; strength is not graded here. For some of these results: Where a sequence is shown, tags or fusion partners need not be part of it.

What was measured:
[1] = molecular target: T1, BMP-2, P12643; experiment: immunoprecipitation, as summed up in the discussion; conditions: remark: other sources report otherwise
T1 chain: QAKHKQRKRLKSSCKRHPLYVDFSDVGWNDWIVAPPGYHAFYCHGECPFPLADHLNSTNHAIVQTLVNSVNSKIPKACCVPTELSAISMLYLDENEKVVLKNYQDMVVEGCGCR

[2] = molecular target: T1, BMP-2, P12643; experiment: COS supernatant with or without 1 ug BMP-2, anti-BMP-2 (h3b2) protein G sepharose beads, Western blot; conditions: remark: other sources report otherwise
[3] = molecular target: T2, BMP-2 (UniProt P12643); experiment: immunoprecipitation, as summed up in the discussion
T2 sequence (looked up): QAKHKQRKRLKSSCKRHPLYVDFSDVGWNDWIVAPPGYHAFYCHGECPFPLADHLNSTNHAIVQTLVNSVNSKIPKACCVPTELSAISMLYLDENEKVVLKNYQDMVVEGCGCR

[4] = molecular target: T2, BMP-2; experiment: COS supernatant with or without 1 ug BMP-2, anti-BMP-2 (h3b2) protein G sepharose beads, Western blot
[5] = molecular target: T2, BMP-2; experiment: reciprocal immunoprecipitation with 9E10 beads; BMP-2 detected by Western blot
[6] = molecular target: T2, BMP-2; experiment: additional binding studies, not described
[7] = molecular target: T1, BMP-2, P12643; experiment: reciprocal immunoprecipitation with anti-hCerberus polyclonal beads; BMP-2 detected by Western blot; conditions: remark: other sources report otherwise
[8] = molecular target: T2, BMP-2; experiment: competition in immunoprecipitation on anti-BMP-2 beads; 2 or 10 ug Xenopus Noggin
[9] = molecular target: T2, BMP-2; experiment: competition in reciprocal immunoprecipitation; 2 or 10 ug human Noggin

B1: hCerberus-FLAG, O95813 18-267 (protein, human, UniProt O95813 18-267, looked up, not shown: small tags and cut ends)
chain: TRHQDGRQNQSSLSPVLLPRNQRELPTGNHEEAEEKPDLFVAVPHLVATSPAGEGQRQREKMLSRFGRFWKKPEREMHPSRDSDSEPFPPGTQSLIQPIDGMKMEKSPLREEAKKFWHHFMFRKTPASQGVILPIKSHEVHWETCRTVPFSQTITHEGCEKVVVQNNLCFGKCGSVHFPGAAQHSHTSCSHCLPAKFTTMHLPLNCTELSSVIKVVMLVEECQCKVKTEHEDGHILHAGSQDSFIPGVSA
B1 was tested, and the binding [1] was “binds” and the binding [2] was “binds”.

B2: mDAN-MYC3 (protein, not shown: small tags and cut ends)
chain: KSAWCEAKNITQIVGHSGCEAKSIQNRACLGQCFSYSVPNTFPQSTESLVHCDSCMPAQSMWEIVTLECPDHEEVPRVDKLVEKIVHCSCQACGKEP
With B2 the binding [3] was “binds”, the binding [4] was “binds” and the binding [5] was “binds”. The binding [6] was “binds”.

B3: xGremlin-MYC3 (protein, not shown: small tags and cut ends)
chain: KKKVSGSQGAIPPPDKGQPNDSEQGQAQPGDRVRGKGKGQALAAEEVLESSQEALHVTERKYLKRDWCKTQPLKQTIHEDGCNSRTIINRFCYGQCNSFYIPRHIRREEGSFQSCSFCKPKKFTTMVVTLNCPELQPPTKKKRITRVKQCRCISIDLD
In the case of B3, the binding [3] is reported as “binds”, the binding [4] is reported as “binds” and the binding [6] is reported as “binds”.

B4: hCerberus, O95813 18-267 (protein, human, UniProt O95813 18-267, looked up)
chain: TRHQDGRQNQSSLSPVLLPRNQRELPTGNHEEAEEKPDLFVAVPHLVATSPAGEGQRQREKMLSRFGRFWKKPEREMHPSRDSDSEPFPPGTQSLIQPIDGMKMEKSPLREEAKKFWHHFMFRKTPASQGVILPIKSHEVHWETCRTVPFSQTITHEGCEKVVVQNNLCFGKCGSVHFPGAAQHSHTSCSHCLPAKFTTMHLPLNCTELSSVIKVVMLVEECQCKVKTEHEDGHILHAGSQDSFIPGVSA
With B4 the binding [7] was “binds”.

B5: hGremlin-MYC3 (protein, not shown: small tags and cut ends)
chain: KKKGSQGAIPPPDKAQHNDSEQTQSPQQPGSRNRGRGQGRGTAMPGEEVLESSQEALHVTERKYLKRDWCKTQPLKQTIHEEGCNSRTIINRFCYGQCNSFYIPRHIRKEEGSFQSCSFCKPKKFTTMMVTLNCPELQPPTKKKRVTRVKQCRCISIDLD
For B5, the binding [5] was “binds”.

B6: purified Xenopus Noggin (protein, UniProt P49011 20-222, looked up)
chain: RIDQGGCQHYLHIRPAPSENLPLVDLIEHPDPIYDPKEKDLNETLLRTLMVGHFDPNFMATILPEERLGVEDLGELDLLLRQKPSGAMPAEIKGLEFYEGLQSKKHRLSKKLRRKLQMWLWSQTFCPVLYTWNDLGTRFWPRYVKVGSCYSKRSCSVPEGMVCKAAKSMHLTILRWRCQRRVQQKCAWITIQYPVISECKCSC
With B6 the binding [8] was “binds”.

B7: human Noggin (protein, UniProt Q13253 28-232, looked up)
chain: QHYLHIRPAPSDNLPLVDLIEHPDPIFDPKEKDLNETLLRSLLGGHYDPGFMATSPPEDRPGGGGGAAGGAEDLAELDQLLRQRPSGAMPSEIKGLEFSEGLAQGKKQRLSKKLRRKLQMWLWSQTFCPVLYAWNDLGSRFWPRYVKVGSCFSKRSCSVPEGMVCKPSKSVHLTVLRWRCQRRGGQRCGWIPIQYPIISECKCSC
In the case of B7, the binding [9] is reported as “binds”.
